Test results: publication PMC6048040
No constants are given. Whether binding was seen depends on the method and setting. For part of these data: Binding calls can cover weak binding; strength is not graded here. For part of these data: In cells and extracts the contact can be indirect.

By UniProt entry, the sequences of proteins in these tests, tags left out. Where a name states a change or a piece, a line headed by the entry shows the natural chain unless it says otherwise.
UniProt Q14676: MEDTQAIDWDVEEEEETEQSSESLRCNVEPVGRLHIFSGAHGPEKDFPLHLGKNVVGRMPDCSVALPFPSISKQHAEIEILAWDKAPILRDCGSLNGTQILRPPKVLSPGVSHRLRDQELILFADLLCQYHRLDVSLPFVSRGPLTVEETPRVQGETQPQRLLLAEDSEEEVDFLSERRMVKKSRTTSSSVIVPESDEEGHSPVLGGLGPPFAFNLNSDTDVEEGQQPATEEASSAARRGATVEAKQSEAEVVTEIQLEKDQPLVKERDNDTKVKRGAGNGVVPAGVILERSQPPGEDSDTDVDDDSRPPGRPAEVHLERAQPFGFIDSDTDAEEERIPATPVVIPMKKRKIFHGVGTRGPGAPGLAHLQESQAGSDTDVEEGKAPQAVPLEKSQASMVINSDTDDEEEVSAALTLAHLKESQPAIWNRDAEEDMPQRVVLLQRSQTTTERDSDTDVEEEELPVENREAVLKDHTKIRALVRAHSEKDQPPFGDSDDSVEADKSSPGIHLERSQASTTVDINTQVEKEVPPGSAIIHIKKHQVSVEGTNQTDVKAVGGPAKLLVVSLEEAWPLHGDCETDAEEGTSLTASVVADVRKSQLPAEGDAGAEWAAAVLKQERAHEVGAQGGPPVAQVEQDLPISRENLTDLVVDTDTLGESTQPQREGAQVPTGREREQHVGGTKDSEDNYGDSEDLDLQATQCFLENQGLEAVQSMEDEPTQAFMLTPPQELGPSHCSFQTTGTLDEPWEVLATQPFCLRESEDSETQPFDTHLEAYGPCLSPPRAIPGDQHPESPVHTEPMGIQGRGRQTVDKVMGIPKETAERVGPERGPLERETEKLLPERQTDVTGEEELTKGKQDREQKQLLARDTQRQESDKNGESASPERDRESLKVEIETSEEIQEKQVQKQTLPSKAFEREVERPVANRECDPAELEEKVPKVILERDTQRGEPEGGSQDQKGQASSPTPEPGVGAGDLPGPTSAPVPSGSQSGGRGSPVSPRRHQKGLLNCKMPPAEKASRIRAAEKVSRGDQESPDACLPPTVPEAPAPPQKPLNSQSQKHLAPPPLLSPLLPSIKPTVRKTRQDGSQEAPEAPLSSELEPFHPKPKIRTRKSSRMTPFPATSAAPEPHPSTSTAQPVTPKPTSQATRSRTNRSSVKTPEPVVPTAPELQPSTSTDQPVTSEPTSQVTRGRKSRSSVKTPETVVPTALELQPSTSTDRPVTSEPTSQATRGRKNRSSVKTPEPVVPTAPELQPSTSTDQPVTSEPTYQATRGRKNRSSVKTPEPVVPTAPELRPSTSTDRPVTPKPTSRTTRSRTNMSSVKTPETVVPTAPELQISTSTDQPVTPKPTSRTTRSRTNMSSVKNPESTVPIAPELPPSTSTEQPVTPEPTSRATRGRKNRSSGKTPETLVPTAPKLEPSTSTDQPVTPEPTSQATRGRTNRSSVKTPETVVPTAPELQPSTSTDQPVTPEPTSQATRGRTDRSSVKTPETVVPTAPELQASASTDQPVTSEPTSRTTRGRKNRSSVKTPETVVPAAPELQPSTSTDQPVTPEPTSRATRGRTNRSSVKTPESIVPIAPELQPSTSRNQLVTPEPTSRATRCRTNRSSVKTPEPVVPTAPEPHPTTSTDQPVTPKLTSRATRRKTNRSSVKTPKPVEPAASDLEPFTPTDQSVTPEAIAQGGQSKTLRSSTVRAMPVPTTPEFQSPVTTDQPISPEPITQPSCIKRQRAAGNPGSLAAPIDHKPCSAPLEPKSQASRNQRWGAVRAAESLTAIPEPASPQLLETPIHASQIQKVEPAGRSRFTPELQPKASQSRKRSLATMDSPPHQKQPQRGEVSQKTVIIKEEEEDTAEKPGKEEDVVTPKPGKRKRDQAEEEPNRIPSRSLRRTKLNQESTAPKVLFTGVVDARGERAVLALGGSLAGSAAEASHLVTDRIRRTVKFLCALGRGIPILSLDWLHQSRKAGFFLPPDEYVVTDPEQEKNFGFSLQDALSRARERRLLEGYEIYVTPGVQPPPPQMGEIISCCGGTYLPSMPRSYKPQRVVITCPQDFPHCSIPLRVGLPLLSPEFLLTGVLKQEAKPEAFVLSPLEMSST
UniProt Q5JVG8: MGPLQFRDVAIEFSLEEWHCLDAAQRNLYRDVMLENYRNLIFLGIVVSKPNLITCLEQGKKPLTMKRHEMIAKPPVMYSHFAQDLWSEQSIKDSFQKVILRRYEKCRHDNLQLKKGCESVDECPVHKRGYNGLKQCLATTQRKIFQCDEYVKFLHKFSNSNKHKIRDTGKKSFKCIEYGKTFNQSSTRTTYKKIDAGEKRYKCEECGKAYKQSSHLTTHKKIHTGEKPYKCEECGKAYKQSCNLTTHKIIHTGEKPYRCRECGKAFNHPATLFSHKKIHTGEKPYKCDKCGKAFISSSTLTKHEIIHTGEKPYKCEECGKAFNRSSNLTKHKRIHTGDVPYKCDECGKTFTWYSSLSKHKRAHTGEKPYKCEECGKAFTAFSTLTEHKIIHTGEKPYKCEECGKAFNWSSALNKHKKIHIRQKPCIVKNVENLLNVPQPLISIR

Legend:
[1] = molecular target: GST-tagged FHA domain of MDC1 (UniProt Q14676); assay: pull-down; GST pull-down in vitro; GST fusion protein on glutathione Sepharose, incubated 1 h at 4 °C, washed with NETN buffer
[2] = molecular target: GST-tagged FHA domain of MDC1 (UniProt Q14676); assay: pull-down; biotinylated ZNF506 peptides incubated with GST control or purified GST-tagged FHA domain of MDC1; blot; both purified
[3] = molecular target: FLAG-tagged ZNF506 ∆ZN (deletion of zinc-finger domains); assay: co-IP; FLAG-tagged ZNF506 constructs expressed in HEK293 cells with endogenous ZNF506 knocked out by CRISPR; irradiated (10 Gy or indicated doses), lysates after an hour, immunoprecipitation with FLAG

In the case of “ZNF506 (as used in the GST pull-down of Fig. 2b) (from UniProt Q5JVG8 1-444)”, the binding [1] is reported as “binds”.

GLKQCLATTQRKIFQCDEYK (pThr at the ninth residue (T140 of ZNF506); C-terminal Lys(Biotin)) [ZNF506 pT140 peptide] was tested, and the binding [2] was “binds”.

B1: EYA1 (enzyme, UniProt Q99502 1-592)
chain: MEMQDLTSPHSRLSGSSESPSGPKLGNSHINSNSMTPNGTEVKTEPMSSSETASTTADGSLNNFSGSAIGSSSFSPRPTHQFSPPQIYPSNRPYPHILPTPSSQTMAAYGQTQFTTGMQQATAYATYPQPGQPYGISSYGALWAGIKTEGGLSQSQSPGQTGFLSYGTSFSTPQPGQAPYSYQMQGSSFTTSSGIYTGNNSLTNSSGFNSSQQDYPSYPSFGQGQYAQYYNSSPYPAHYMTSSNTSPTTPSTNATYQLQEPPSGITSQAVTDPTAEYSTIHSPSTPIKDSDSDRLRRGSDGKSRGRGRRNNNPSPPPDSDLERVFIWDLDETIIVFHSLLTGSYANRYGRDPPTSVSLGLRMEEMIFNLADTHLFFNDLEECDQVHIDDVSSDDNGQDLSTYNFGTDGFPAAATSANLCLATGVRGGVDWMRKLAFRYRRVKEIYNTYKNNVGGLLGPAKREAWLQLRAEIEALTDSWLTLALKALSLIHSRTNCVNILVTTTQLIPALAKVLLYGLGIVFPIENIYSATKIGKESCFERIIQRFGRKVVYVVIGDGVEEEQGAKKHAMPFWRISSHSDLMALHHALELEYL
In the case of B1, the binding [3] is reported as “no binding”.
